Patent US20040197808A1
Results are given in words; binding and its absence hold for the method and conditions named. For some assays here: Binding seen in cells or lysates may run through a third protein. Some results given as binding are weak or reduced against the parent protein; the word gives no strength. Sequences can lack the tags named with a protein.

Legend:
[1] = molecular target: T1, FLAG-tagged linker and ligand-binding regions of the EcR partner protein (USP polypeptide) of the D. melanogaster ecdysone receptor (Drosophila melanogaster) (UniProt P20153); assay: co-purification on FLAG M2 Affinity Gel
T1 sequence (looked up): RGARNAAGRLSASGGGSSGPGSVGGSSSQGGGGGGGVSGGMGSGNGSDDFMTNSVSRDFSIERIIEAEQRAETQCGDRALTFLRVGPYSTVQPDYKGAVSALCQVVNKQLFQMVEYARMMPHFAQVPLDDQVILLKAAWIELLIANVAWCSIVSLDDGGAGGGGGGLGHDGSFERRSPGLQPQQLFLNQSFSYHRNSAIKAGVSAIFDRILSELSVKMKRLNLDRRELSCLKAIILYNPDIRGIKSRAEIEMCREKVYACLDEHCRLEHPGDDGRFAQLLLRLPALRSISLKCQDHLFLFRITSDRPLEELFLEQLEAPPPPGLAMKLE

[2] = molecular target: T1, FLAG-tagged linker and ligand-binding regions of the EcR partner protein (USP polypeptide) of the D. melanogaster ecdysone receptor (Drosophila melanogaster); assay: baculovirus co-expression in Sf21 and Sf9 cells

- binding [1]: binds
- binding [2]: binds
B1: oligo-His-tagged linker and ligand-binding regions of the EcR polypeptide of the D. melanogaster ecdysone receptor (receptor, Drosophila melanogaster, UniProt P34021 361-878, looked up, not shown: small tags and cut ends)
chain: SSQHGGNGSLASGGGQDFVKKEILDLMTCEPPQHATIPLLPDEILAKCQARNIPSLTYNQLAVIYKLIWYQDGYEQPSEEDLRRIMSQPDENESQTDVSFRHITEITILTVQLIVEFAKGLPAFTKIPQEDQITLLKACSSEVMMLRMARRYDHSSDSIFFANNRSYTRDSYKMAGMADNIEDLLHFCRQMFSMKVDNVEYALLTAIVIFSDRPGLEKAQLVEAIQSYYIDTLRIYILNRHCGDSMSLVFYAKLLSILTELRTLGNQNAEMCFSLKLKNRKLPKFLEEIWDVHAIPPSVQSHLQITQEENERLERAERMRASVGGAITAGIDCDSASTSAAAAAAQHQPQPQPQPQPSSLTQNDSQHQTQPQLQPQLPPQLQGQLQPQLQPQLQTQLQPQIQPQPQLLPVSAPVPASVTAPGSLSAVSTSSEYMGGSAAIGPITPATTSSITAAVTASSTTSAVPMGNGVGVGVGVGGNVSMYANAQTAMALMGVALHSHQEQLIGGVAVKSEHSTTA
